± gives the standard deviation of the averaged measurements. The list shows a part of the results, in another mix than the full data. Most values lie at the level of the controls, where differences are scatter.
Target: VKORC1 (UniProt Q9BQB6)
Experiment: NP40-soluble protein abundance relative to vehicle (solubility fold change) (ratio); higher = more soluble protein in presence of AMP-PNP
Outline: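 Each value is a fold change relative to the detergent-processed vehicle, calculated per replicate from vsn-normalised intensities. Jurkat crude lysate received eight concentrations (0.1 to 10 mM) for 10 min at room temperature and 3 min at 37 °C, then was solubilised in 0.8% NP40 with benzonase (60 min, 4 °C). The ultracentrifuged supernatant was TMT-labelled and run by LC-MS/MS in three independent experiments.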

Nc1ncnc2c1ncn2[C@@H]1O[C@H](COP(=O)(O)OP(=O)(O)NP(=O)(O)O)[C@@H](O)[C@H]1O [adenylyl imidodiphosphate]
NP40-soluble protein abundance (concentration: 0.1mM): 0.9692 ± 0.0025
NP40-soluble protein abundance (concentration: 0.5mM): 0.976 ± 0.05

Reference: the supplement of paper PMC6411743
